Experimental findings from PubChem BioAssay (NCATS) are described below.

Chains of the proteins cited; added tags and fusions are not shown. Lines headed by an entry give the natural chain unless they say otherwise; changes in a name come on top.
UniProt P50135: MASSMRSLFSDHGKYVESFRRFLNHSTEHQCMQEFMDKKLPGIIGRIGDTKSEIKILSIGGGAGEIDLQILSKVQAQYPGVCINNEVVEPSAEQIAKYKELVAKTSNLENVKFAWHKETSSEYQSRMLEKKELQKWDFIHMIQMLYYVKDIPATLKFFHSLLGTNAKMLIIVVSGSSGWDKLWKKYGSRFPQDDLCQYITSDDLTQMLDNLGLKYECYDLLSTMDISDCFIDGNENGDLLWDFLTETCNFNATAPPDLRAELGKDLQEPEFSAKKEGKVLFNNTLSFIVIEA
UniProt P40261: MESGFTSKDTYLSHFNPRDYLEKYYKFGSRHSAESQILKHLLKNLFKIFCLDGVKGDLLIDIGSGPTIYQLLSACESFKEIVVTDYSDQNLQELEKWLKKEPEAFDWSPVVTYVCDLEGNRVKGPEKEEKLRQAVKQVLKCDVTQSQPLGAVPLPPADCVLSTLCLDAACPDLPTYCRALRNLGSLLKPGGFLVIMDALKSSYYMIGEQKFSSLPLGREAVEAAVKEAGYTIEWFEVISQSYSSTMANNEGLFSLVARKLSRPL

Some of the results follow. These are further read-outs of the screen, such as a control signal, another cell line or another target. No call is given for them. Most of these compounds were active or inconclusive in the main read-out, so they are no random draw. For some of these results: Words in brackets tell the shape of the fitted curve; partial curves, single points and poor fits give uncertain potencies.

Test [1] in a line: qHTS Assay for Modulators of Human Peripheral Myelin Protein 22 (PMP22) Expression/Activity (AID 1967). As to conditions: Cell-based PMP22 reporter, dual-color luciferase ratio; measured here: green reporter channel AC50; mouse Pmp22 promoter in mouse Schwann cells. In a few lines:
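Mouse MSC80 Schwann line, Pmp22 promoter–CBG68 reporter, EF-alpha–CBR internal control. 24h compound exposure, 37 °C/5% CO2, DMEM + 10% FBS. Readout: corrected green/red luminescence ratio, normalized to untreated cells; concentration-response curves fitted and classified.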

Test [2] is described as follows: Nrf2 qHTS screen for inhibitors: Validation (AID 493153). As to conditions: A549 ARE-Fluc reporter, 18-24 h; AC50: CellTiter-Fluor fluorescence read, measured here: cytotoxicity CellTiter-Fluor AC50; viability change: measured here: cytotoxicity max response. In a few lines: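 A549 cells carrying ARE-firefly luciferase reporter, 5000 cells/well in 5% FBS OPTI-MEM, treated with compound over a concentration series for 18-24 h at 37 C. Luciferase luminescence gave Nrf2 activity; CellTiter-Fluor fluorescence gave viability.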
For orientation: qHTS replaces the single test concentration by a dilution series.

Test [3] can be described thus: qHTS assay for small molecule antagonists of peroxisome proliferator-activated receptor delta signaling (AID 588535).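 Note: cells co-treated with a PPAR-delta agonist as stimulator during compound exposure.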 As to conditions: HEK293T PPARd-UAS-bla, beta-lactamase FRET ratio, 18 h; 460 nm channel. The procedure, abridged: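 Antagonist-mode beta-lactamase reporter (GeneBLAzer PPAR-delta-UAS-bla) in HEK293T cells, 2% charcoal/dextran FBS, 4000 cells/well. Compound titrations, 18 h at 37 C; CCF4 ratio read, IC50 and efficacy from Hill fits.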

A short description of test [4]: NCATS anti-infectives library activity on the primary C. elegans qHTS viability assay (AID 1745855). As to conditions: C. elegans worm area imaging, day 7, measured here: worm number. The procedure, abridged:
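Viability read-out is GFP fluorescence of PE254-GFP-FLuc C. elegans, measured by laser cytometry (488 nm) at day 0, 3 and 7. Ten L1 worms per well were incubated 7 days at 21 °C with compounds and bacterial capsules in S medium.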

Test [5] in a line: qHTS for identification of novel therapeutic agents for treatment of microphthalmiaassociated transcription factor (MiT) renal cell carcinoma (RCC) (AID 1963991).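 For z-score: curves scaled with 100% = DMSO viability and 0% = empty wells.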 The following applies: CellTiter-Glo, 48 h; for z-score: stronger effect = lower value. The procedure, abridged: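 UOK109/UOK124/UOK145 (TFE3 fusions, three partners); 500 cells/well; MIPE v4.0, 1912 cpds, 11 conc.; 48 h, 37 C; CellTiter-Glo, 15 min RT; lum. Norm.: DMSO 100%, empty 0%.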

Test [6] addresses Histamine N-methyltransferase (Homo sapiens) (UniProt P50135). As to the kind of experiment: Confirmatory Screen for Target Class Profiling of Small Molecule Inhibitors of Methyltransferases (AID 1745852). As to conditions: MTase-Glo luminescence, SAH detection, recombinant enzyme; measured here: HNMT inhibition potency.
The target of test [7] is Nicotinamide N-methyltransferase (Homo sapiens) (UniProt P40261). The test is described as above. The following applies: MTase-Glo luminescence, SAH detection, recombinant enzyme; measured here: NNMT inhibition potency.
[8] abbreviates: TFE3-RCC UOK109 viability, measured here: UOK109 Z-AUC.
The mark [9] stands for this setting: TFE3-RCC viability, measured here: UOK124 Z-AUC.
The mark [10] stands for this setting: TFE3-RCC viability, measured here: UOK124 cell viability.
Where [11] appears, read: TFE3-RCC viability, measured here: UOK145 Z-AUC.
The mark [12] stands for this setting: TFE3-RCC viability, measured here: UOK145 cell viability.

As for `Oc1ccc(C2CNCc3sccc32)cc1O` (configuration not stated), the half-maximal activity concentration (AC50) (commonly the midpoint of the concentration-response curve, whichever way the signal moves) in test [1] was 53.6 µM [falling, partial curve].

On to `N.N.N.N.N.N.N.N.N.N.N.N.N.N.O.O.[Ru+4].[Ru+5].[Ru+5]`, for which, in test [2], the AC50 was 13 µM [falling, partial curve] and the viability change was -56.7%.

As to `Brc1c(Br)c(Br)c2[nH]cnc2c1Br`, the viability change in test [2] is 0.0472%.

As to `Oc1ccccc1O`, the max response in test [3] is 48.8%.

Take `COc1c(O)cc2c(c1O)[C@@H]1O[C@H](CO)[C@@H](O)[C@H](O)[C@H]1OC2=O`: the AC50 in test [4] was 1.45 µM [falling, partial curve, poor fit].

In the case of `CN(C)CCCNC(=O)c1ccc(-c2cc(O)c3ncccc3c2)cc1`, the z-score was found to be 0.583 in test [5] (setting [8]), 0.79 in test [5] (setting [9]) and 0.545 in test [5] (setting [11]). The AC50 in test [5] (setting [10]) is 10.5 µM [falling, full curve]; in test [5] (setting [12]) it was 18.7 µM [falling, partial curve].

In the case of `Oc1ccc2ccccc2c1SSc1c(O)ccc2ccccc12`, the figures for the z-score in test [5] (setting [8]), in test [5] (setting [9]) and in test [5] (setting [11]) were -0.0911, 0.329 and -0.0732, respectively. In addition, the concentration at half-maximal activity (AC50) in test [5] (setting [10]) is 29.6 µM [falling, single point]; in test [5] (setting [12]) it was 37.2 µM [falling, single point].

As to `COc1cc2nc(N3CCCC3)nc(NCCCCCN3CCCC3)c2cc1OC`, the IC50 (commonly the concentration at which inhibition is half-maximal) was 8.57 µM [falling, partial curve] in test [6] and 24.1 µM [falling, single point] in test [7].

Consider `CCN1CCC[C@@H]1CNC(=O)c1ccc2c(c1)NC(=O)/C(=C/c1ccccc1F)S2`, for which the 50% inhibitory concentration (IC50) in test [6] was 10.8 µM [falling, partial curve]; in test [7], 24.1 µM [falling, single point].

On to `O=C(NCc1ccc(Oc2ccccc2)cc1)c1nc(-c2cc(Br)c(O)c(Br)c2)no1`, for which the IC50 in test [6] is 17.1 µM [falling, partial curve]; in test [7], 27.1 µM [falling, partial curve].
